Reference: PubChem BioAssay AID652054 (National Center for Advancing Translational Sciences (NCATS), 2013)
Values joined by “and” are separate entries in the source; they are usually repeats but may differ in a detail not shown here. Equal entries are not always repeated. About 9,100 (2.5%) of roughly 360,000 compounds were called active. This list was built around the results that the source calls inconclusive (neither active nor inactive); the mix of calls is not that of the screen. Rule as the data show it: active = max response below about -50%; inconclusive = no clear call, values can overlap the other calls; inactive = above that. Some compounds were tested as several samples or in several runs, with calls that do not always agree.
% is scaled to controls: 0 for no effect and ±100 for the full control effect.

Protein sequences, listed by entry. Tags and fused reporters are not part of them.
UniProt P35462, whole entry, looked up: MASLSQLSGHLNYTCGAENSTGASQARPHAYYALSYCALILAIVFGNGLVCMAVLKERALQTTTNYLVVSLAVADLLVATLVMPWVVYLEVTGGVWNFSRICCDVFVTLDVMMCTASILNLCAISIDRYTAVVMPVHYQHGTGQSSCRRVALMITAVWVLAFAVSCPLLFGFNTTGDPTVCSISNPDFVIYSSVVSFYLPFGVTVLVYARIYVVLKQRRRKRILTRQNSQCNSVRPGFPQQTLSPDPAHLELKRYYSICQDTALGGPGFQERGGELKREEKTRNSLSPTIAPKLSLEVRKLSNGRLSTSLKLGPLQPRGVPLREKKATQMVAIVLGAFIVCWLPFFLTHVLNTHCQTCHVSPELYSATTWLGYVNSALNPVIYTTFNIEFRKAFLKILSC

The molecules below were run against D(3) dopamine receptor (Homo sapiens) (UniProt P35462) (assay: qHTS of D3 Dopamine Receptor Antagonist: qHTS). Details: D3R cells, DiscoveRx beta-arrestin luminescence, antagonist mode; active compounds read low.
Procedure, shortened: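 Cells expressing the human receptor were seeded at 1500 cells/well, incubated overnight at 37 degrees C in 5% CO2, then exposed to library compounds with dopamine controls for 90 minutes at 37 degrees C before luminescent detection.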
For `O=C(/C=N/O)NCc1ccncc1`, the max response, negative = inhibition was inconclusive: -43.9%.
For `Cc1ccc(N=Nc2c(C)[nH]n(C(N)=S)c2=O)cc1`, the max response, negative = inhibition was inconclusive: -30.1%.
With `O=[N+]([O-])c1ccc(/C=N/n2c(-c3cccnc3)n[nH]c2=S)cc1` the max response, negative = inhibition was active: -56%.
In the case of `CN1CCN(CC#CC(C)(O)C2CC3C=CC2C3)CC1` (centres undefined), the max response, negative = inhibition is reported as inactive: 0%.
With `COc1ccc(CCNC(=O)C(=O)NCC2CCCO2)cc1OC` (centres undefined) the max response, negative = inhibition was inconclusive: -31%.
In the case of `Cc1nc(SCC(=O)Nc2ccccc2C(F)(F)F)c2c(=O)n(C)c(=O)n(C)c2n1`, the max response, negative = inhibition is reported as inconclusive: -33.7%.
In the case of `O=Cc1ccc(C(=O)OCC(=O)N2CCCC2)cc1`, the max response, negative = inhibition is reported as inactive: 2.93%.
With `O=C(Nc1nnc(SCc2ccc(Cl)cc2)s1)C1CC(=O)N(Cc2ccccc2)C1` (centres undefined) the max response, negative = inhibition was inconclusive: -42.5%.
With `CCCNc1nc2nc3ccccn3c(=O)c2cc1C(=O)NCCN1CCOCC1` the max response, negative = inhibition was inactive: -3.55%.
In the case of `Cc1oc(-c2ccc(Cl)cc2)nc1CN1CCC(C(=O)N2CCN(Cc3ccccc3)CC2)CC1`, the max response, negative = inhibition is reported as active: -77.3%.
With `CCC1Nc2ncnc(N3CCN(c4ccccn4)CC3)c2N(Cc2ccc(Cl)cc2)C1=O` (centres undefined) the max response, negative = inhibition was active: -104%.
`COc1ccc(C(CNC(=O)c2cccc(NS(=O)(=O)c3ccc(C)c(F)c3)c2)N(C)C)cc1` (centres undefined) was tested, and the max response, negative = inhibition was active: -58.5%.
For `Cn1c(-c2ccc(C(=O)c3ccccc3)s2)nc2ccccc21`, the max response, negative = inhibition was inconclusive: -42.9%.
For `CC1(C(=O)Nc2ccc3c(c2)OCO3)CCN1C(=O)CC1CC1` (centres undefined), the max response, negative = inhibition was inconclusive: -36.2%.
In the case of `CC(C)Oc1snc(Cl)c1C(N)=O`, the max response, negative = inhibition is reported as inconclusive: -42.2%.
`O=C(c1ccc(Br)o1)N1CCN(Cc2ccc3c(c2)OCO3)CC1` was tested, and the max response, negative = inhibition was active: -81.2%.
`COc1ccc(CN(C)CC2CCCN(CCc3ccccc3C)C2)cc1O` (centres undefined) was tested, and the max response, negative = inhibition was inactive: 14.8%.
With `COc1ccc(NCc2n[nH]c(=O)c3ccccc23)cc1` the max response, negative = inhibition was inconclusive: -33.3%.
In the case of `C=CCn1c(SCC(=O)Nc2cccc(OC)c2)nnc1-c1cccnc1`, the max response, negative = inhibition is reported as inconclusive: -46.3%.
With `Cc1nn2c(N3CCN(C)CC3)cc(C(C)(C)C)nc2c1-c1ccccc1` the max response, negative = inhibition was inactive: -27.7%.
For `CC(C)CC1Nc2ncnc(N3CCN(c4ccccn4)CC3)c2N(Cc2ccc(Br)cc2)C1=O` (centres undefined), the max response, negative = inhibition was active: -99.1%.
For `COc1ccccc1C(=O)NCCC(=O)Nc1cccc(C)n1`, the max response, negative = inhibition was inconclusive: -30.8%.
`CCCNC(=S)NCCN1CCCCC1` was tested, and the max response, negative = inhibition was active: -62.5%.
In the case of `O=C1CCCC(O)=C1C(C#Cc1ccccc1)C1=C(O)CCCC1=O`, the max response, negative = inhibition is reported as active: -61.4%.
With `NC(=S)n1[nH]c(-c2ccc([N+](=O)[O-])cc2)c(N=Nc2cccc(Cl)c2)c1=O` the max response, negative = inhibition was inconclusive: -36.5%.
With `Cc1csc(NC(=O)C2C3C=CC(C3)C2C(=O)O)n1` (centres undefined) the max response, negative = inhibition was inactive: 21.3%.
`COC(=O)COc1cccc(NS(=O)(=O)c2cccc([N+](=O)[O-])c2)c1` was tested, and the max response, negative = inhibition was inactive: -4.5%.
For `CCCCNC(=O)C1(C)CCN1C(=O)c1ccc2ccccc2n1` (centres undefined), the max response, negative = inhibition was inactive: 7.35%.
With `OC(CNCCNc1ncccc1C(F)(F)F)Cn1ccc2ccccc21` (centres undefined) the max response, negative = inhibition was inconclusive: -35.4%.
`COc1ccc(CCNC(=O)CN2CCC(C)CC2)cc1OC` was tested, and the max response, negative = inhibition was inconclusive: -48.5%.
In the case of `Cc1ccc(S(=O)(=O)N2CCN(S(=O)(=O)N3CCOCC3)CC2)cc1C`, the max response, negative = inhibition is reported as inconclusive: -42.7%.
`COc1ccc(OC)c(NC(=O)Nc2c(O)ccc3ccccc23)c1` was tested, and the max response, negative = inhibition was inconclusive: -36.6%.
`COc1cc(C#N)ccc1OC(=O)c1cccc(S(=O)(=O)N2CCN(C)CC2)c1` was tested, and the max response, negative = inhibition was inconclusive: -48.6%.
In the case of `CCCN(C(=O)Cc1coc2cc(OC)ccc12)C1CCS(=O)(=O)C1` (centres undefined), the max response, negative = inhibition is reported as active: -51.9%.
In the case of `Cc1ccc(C(=O)c2coc3ccc(OCC(=O)O)cc23)cc1`, the max response, negative = inhibition is reported as active: -61%.
For `Cc1c2ccccc2nc2ccccc12`, the max response, negative = inhibition was inactive: 0%.
For `O=[N+]([O-])c1ccc(NN=Cc2ccc(O)cc2)nc1`, the max response, negative = inhibition was inconclusive: -42.1%.
`Cc1sc2ncn(CC(=O)NCC(=O)N(C)Cc3ccccc3)c(=O)c2c1C` was tested, and the max response, negative = inhibition was inactive: 15.1%.
`COc1ccc(C(=O)Cn2cnc3ccccc3c2=O)cc1` was tested, and the max response, negative = inhibition was inactive: 4.32%.
`O=C(CN1CCCCCC1)N1c2ccccc2Sc2ccc(C(F)(F)F)cc21` was tested, and the max response, negative = inhibition was inconclusive: -30.3%.
With `CC(C)Oc1ccc(C(=O)N/N=C/c2ccc(-c3ccc(S(=O)(=O)Nc4ncccn4)cc3)o2)cc1` the max response, negative = inhibition was active: -54.5%.
In the case of `CC1CCCC(NC(=O)C2N(CCCN3CCCC3)C(=O)C3C(C(=O)Nc4ccc(Cl)cc4)C4C=CC32O4)C1C` (centres undefined), the max response, negative = inhibition is reported as inactive: 1.82%.
For `Cc1cc(C)nc(NC(=O)c2cccc(Cl)c2)n1`, the max response, negative = inhibition was inconclusive: -30.1%.
With `CCC1Nc2ncnc(N3CCN(c4ccccc4)CC3)c2N(Cc2ccccc2)C1=O` (centres undefined) the max response, negative = inhibition was active: -169% and active: -142%.
